Results reported in patent US20090324579A1.
Results are given in words; binding and its absence hold for the method and conditions named. Binding calls can cover weak binding; strength is not graded here.

B1: Casp1 VHH displayed on phage (VHH)
VHH: DVQLQASGGGLVQPGGSLRLSCAASGSLSRITVMGWYRQAPGKQRELVAIITSSGGTNYADSVKGRFTISRDNAKNTVYLQMNSLKPEDTAVYYCLAARGYDRYWGRGTQVTVSS
B2: Casp2 VHH displayed on phage (VHH)
VHH: DVQLQASGGGLVQAGGSLRLSCAASTNIFRDKFMAWYRQAPGKQRELVASITTGGRTDYADSVKGRFTISRDNTKDTMYLQMNSLKPEDTAVYYCAGFLGRTYWGQGTQVTVSS

Tests used:
[1] = biological target: recombinant caspase-3 protein; assay: phage ELISA on immobilized caspase-3
[2] = biological target: recombinant caspase-3 protein; assay: phage ELISA, VHH-phage on immobilized caspase-3

| Binder | binding [1] | binding [2] |
| --- | --- | --- |
| B1 | binds | binds |
| B2 | binds | binds |
